Assay results: the supplement of paper PMC5949888
Most values lie at the floor of the assay. Slopes are relative: functional sequences can read slightly below zero.

These substances were tested on Saccharomyces cerevisiae PS128 hsf1 delta, HSF1(1-493) fusion (assay: growth estimate (transactivation domain function in HSF1 fusion, heat-shock survival) (a.u. (slope of normalised read count over time)); higher = stronger growth at 37°C, i.e. more transactivation activity). Conditions: library: random library.

| Substance | growth estimate |
| --- | --- |
| CAVEQMVEEEKKDGRKCGEF | < -0.25 |
| GHHQANRWSGPGRWPIRVRL | < -0.25 |
| GFTGRAHPQVWS | < -0.25 |
| RTVSRNCQRVA | < -0.25 |
| CGKGEASGLILTFRADKRTP | < -0.25 |
| FVCQES | < -0.25 |
| SHDEREMKCIMTPREI | < -0.25 |
| SFRLTHTAMARQPSGFFDHD | < -0.25 |
| ETMPVTIGSGFGIALPERTR | < -0.25 |
| CRRKNPSATLTF | < -0.25 |
| AAIGTSRLEWCYVHPFQTLS | < -0.25 |
| LYVTGFRNVATLIPKALLPY | < -0.25 |
| RPGQLT | < -0.25 |
| EVQCGIRYRDLVAHSIGCWL | < -0.25 |
| GLVGVN | < -0.25 |
| GNWKT | < -0.25 |
| SGGSVLEVEKRRQAITV | < -0.25 |
| ERRQRCFSMFVGRKPERIRR | < -0.25 |
| YGKVCRWESRHFEWFGKARC | < -0.25 |
| GEATELSLSEHV | < -0.25 |
| CRKYRVWSGDHGACGPPRRT | < -0.25 |
| PFKWCWNCGVHCVTDKIHST | < -0.25 |
| RVVRAGWRRTGWRNQ | < -0.25 |
| WVRSKPNHGYWRSFA | < -0.25 |
| GMGLPAPRLRLLNVKSAAQG | < -0.25 |
| PSLWVLMHNVIFCPGMWLQG | -0.239 |

A different layout for some results above:
RTVSRNCQRVA
  growth estimate: < -0.25
GEATELSLSEHV
  growth estimate: < -0.25

Copied from the list:
Value of CRKYRVWSGDHGACGPPRRT under growth estimate: < -0.25
Value of CRRKNPSATLTF under growth estimate: < -0.25
Value of ERRQRCFSMFVGRKPERIRR under growth estimate: < -0.25
Value of GEATELSLSEHV under growth estimate: < -0.25
Value of YGKVCRWESRHFEWFGKARC under growth estimate: < -0.25
Value of RTVSRNCQRVA under growth estimate: < -0.25

Further records follow.

| Substance | growth estimate |
| --- | --- |
| EVGVTKRCRTAIKRRDSRTV | < -0.25 |
| KCPAVSRQSARIWRRSD | < -0.25 |
| LLEKEWSGHRHRKLLVTSRG | < -0.25 |
| SQRVEGVAMLVSGYPSGLFS | < -0.25 |
| TDYKHKLAGASARGSGRPAL | < -0.25 |
| DTTAAGSSITSSEIALIRHG | < -0.25 |
| LPKRISPFVAHIRRDTHETG | < -0.25 |
| VSPRVRKPR | < -0.25 |
| RVRKMFCGSDICPDYLVHVN | < -0.25 |
| KGLEPITTCGVYHGSHWTGG | < -0.25 |
| IRLTAEAWLLPVDVGITGQR | < -0.25 |
| WVRWGEYPPDVWSIV | < -0.25 |
| RSAREC | < -0.25 |
| TSQFSFLPSSRG | < -0.25 |
| DYVPNICTQVLDREVTGHLD | 0.154 |
| LRFLA | < -0.25 |
| AERTVAPDIQDIGKERTRGL | < -0.25 |
| GCLDKNDWTINSLWVNSVYG | < -0.25 |
| VCQCAVSVGGLMQFAASGSG | < -0.25 |
| GGSGSSVKQLLAPLMTFAQP | < -0.25 |
| CECIGPTGLPPLCPGILTFA | < -0.25 |
| RPIGLFSLSVKPTQILSVIG | < -0.25 |
| VLGWLV | < -0.25 |
| YRSPPMRAWGSFAPLRTRIP | < -0.253 |
| YLGVTTGVKTVFGLFKARTS | < -0.25 |
| MEGGVPKRKVPAVRPEVSTM | < -0.25 |

| Substance | growth estimate |
| --- | --- |
| YRQSLRVVVYLSCSLTLPQI | < -0.25 |
| TNCNVGD | < -0.25 |
| DQV | < -0.25 |
| TTSVSLTCVWAQLSTER | < -0.25 |
| EKEGNLELQRTRGTI | < -0.25 |
| LQLDSQA | < -0.25 |
| RCLPTRRK | < -0.25 |
| AQGRIEAIRRKFSSQLWRTP | < -0.25 |
| SLHGPLGAG | < -0.25 |
| ALSRIIGSGGKMRE | < -0.25 |
| SGRMGSSRSRRS | < -0.25 |
| KTW | -0.243 |
| LRASAGEGMAC | < -0.25 |
| RRPSYLRSYTRTRTTGLKVD | < -0.25 |
| EGQT | < -0.25 |
| GDSIVNLSVLLIS | < -0.25 |
| LQIYANPLICLFHPNSVRRC | < -0.25 |
| PCTVRR | < -0.25 |
| RAIEDQLRRFQANQGVLEKE | < -0.25 |
| TDLLNG | < -0.25 |
| PAG | < -0.25 |
| GTTFHRVVGAGCYLEGPSFF | < -0.25 |
| SVSPPGRYSQPGSAEIILHR | -0.25 |
| RNGESFKRGQGIKNPSASRG | < -0.25 |
| TLGFCSELQRCRTLFVCLVP | < -0.25 |
| RRSQRRTVER | < -0.25 |

| Substance | growth estimate |
| --- | --- |
| FWPTCVRAHSAWSCKGYFWK | < -0.25 |
| GIYTFMRGGRIPLHTIFPAA | < -0.25 |
| AGRWLSIE | < -0.25 |
| ATVKSCLGQSLCRRSVRTNW | < -0.25 |
| PGTLSVQPIRG | < -0.25 |
| GVISGFNLKRILISSLMSSA | < -0.25 |
| GGQKGVGGLNLMVSY | < -0.25 |
| RSLGRRRLTNPR | < -0.25 |
| GVLFAVGLALLKSAGSLSVP | < -0.25 |
| TSLYDFSMLLLSPPIYGNEC | < -0.25 |
| PCAMCCQYKRGCVSVAIQEA | < -0.25 |
| LKQSNLPTSQSASQYNGSQS | < -0.25 |
| GMTTIRGISQMPLPRGSINA | -0.246 |
| TPEGGNSSSAVRPRMYSLNG | < -0.25 |
| LYVYVYREPLGNKCSTPGGC | < -0.25 |
| WQCLITDSYRSGFVLSLLSP | < -0.25 |
| YSERMGRHHIRKLPR | < -0.25 |
| GRCRRYHDTV | < -0.25 |
| QSDWLHVDMFRHAVLPQ | < -0.25 |
| FGYLLELVVRKLTFEANHRG | < -0.25 |
| EDRGTWGKGAA | < -0.25 |
| SRI | < -0.25 |
| LKGVMCVHRCRRGHRTYVAC | < -0.25 |
| PTSVMSRDIAEAAAALRTRI | < -0.25 |
| LQIRLSVISASEIVLRV | < -0.25 |
| NRLLGRRPRCESLSTAPGGK | < -0.25 |

| Substance | growth estimate |
| --- | --- |
| PADYRAPMLASQSNELLLDG | < -0.25 |
| HRHGLCAHKPSTAF | < -0.25 |
| TAGSQYRRGLGEHLIHRSYD | < -0.25 |
| YYS | < -0.25 |
| VRSSSGVSP | -0.246 |
| RLLGELGSVCVKTYERDGRS | < -0.25 |
| GMKQIIRRRRGGLWPASNAA | < -0.25 |
| GLHSRQFGIFLPD | < -0.25 |
| GKPQLNIHAHRPGCNTSDEN | < -0.25 |
| TRIRTEALVAPRIRAPPRVA | < -0.25 |
| AGYRE | < -0.25 |
| VATGGFRDIRNANPSSSIVR | < -0.25 |
| HQALRTVVTQA | < -0.25 |
| QVLGVGRDYRNHRYTGVKNP | < -0.25 |
| LCLEIRPRARGRTTLDLHGP | < -0.25 |
| TLERGTEIVFWQRRQSLNSV | < -0.25 |
| NSWLSPPFASCIKTGNLLEI | < -0.25 |
| SCVGTQ | < -0.25 |
| TWKHRTPPSPLTRMAMDDIS | < -0.25 |
| VQGPGTRPCMAVSG | < -0.25 |
| SDTAALCRVWS | < -0.25 |
| LEPVREARPLQKEHS | < -0.25 |
| LETHSGTYAPHGVSPTVSRI | < -0.25 |
| PRRTHRGSGNCPFRH | < -0.25 |
| SAVCGGLGDQPVAWG | < -0.25 |
| LLSLTL | < -0.25 |

| Substance | growth estimate |
| --- | --- |
| RGLQYLLIAKRGHLRLRHVC | < -0.25 |
| LIGSPWGCNRGDTS | < -0.25 |
| RFVFA | < -0.25 |
| LRSRAICARR | < -0.25 |
| QGYLGRHRSQN | < -0.25 |
| AQTYESRASGLLGTDDSSLA | < -0.25 |
| MYQVTDYWVYGGGCKSPHPK | < -0.25 |
| PAS | < -0.25 |
| RCCTRPG | < -0.25 |
| LVLPTFSVC | < -0.25 |
| GARFGAAFRAFMAGGE | < -0.25 |
| HKQMDSPLSGQPAPSFLKNH | < -0.25 |
| PVCLKSWSIGPTLCHGIRLL | < -0.25 |
| NSAVRDVTANTTPYRNGILH | < -0.25 |
| ASSVNGTIPPRA | < -0.25 |
| TSRRSSPQ | < -0.25 |
| RDTLLGFMVGRGLLKMGTHC | < -0.25 |
| DGRPGESSVICSSLKYVPLG | < -0.25 |
| AVYVAWDI | -0.232 |
| PIHHSSW | < -0.25 |
| GVAQGRLMSYLLSAPSCKPQ | < -0.25 |
| SFYMSCRFIARLTVPGLPPT | < -0.25 |
| SPEHGISAVFLVTC | -0.243 |
| LAGLTLDGT | < -0.25 |
| RTPAGPLFDLGFPNKLRIKE | < -0.25 |

Another view of part of the listing above.
GTTFHRVVGAGCYLEGPSFF
  growth estimate = < -0.25
VRSSSGVSP
  growth estimate = -0.246
HQALRTVVTQA
  growth estimate = < -0.25
SCVGTQ
  growth estimate = < -0.25
